Experimental data reported in paper PMC8474885.
Results are given in words; binding and its absence hold for the method and conditions named. Binding seen in cells or lysates may run through a third protein. Here binding means that the protein was enriched with, or labelled near, the bait; the list need not be complete.

Target: 3Flag-tagged p113 (human)
Test: affinity purification with mass spectrometry; co-IP with p113 or Flag-tag antibody from SH-SY5Y cells stably transfected with 3Flag-tagged p113; bead-bound proteins analysed by mass spectrometry; hits overlapped with transcription and epigenetic factor databases

binding: binds
B1: Zuotin-related factor 1 (ZRF1), endogenous (protein, UniProt Q99543 1-621)
chain: MLLLPSAADGRGTAITHALTSASTLCQVEPVGRWFEAFVKRRNRNASASFQELEDKKELSEESEDEELQLEEFPMLKTLDPKDWKNQDHYAVLGLGHVRYKATQRQIKAAHKAMVLKHHPDKRKAAGEPIKEGDNDYFTCITKAYEMLSDPVKRRAFNSVDPTFDNSVPSKSEAKDNFFEVFTPVFERNSRWSNKKNVPKLGDMNSSFEDVDIFYSFWYNFDSWREFSYLDEEEKEKAECRDERRWIEKQNRATRAQRKKEEMNRIRTLVDNAYSCDPRIKKFKEEEKAKKEAEKKAKAEAKRKEQEAKEKQRQAELEAARLAKEKEEEEVRQQALLAKKEKDIQKKAIKKERQKLRNSCKTWNHFSDNEAERVKMMEEVEKLCDRLELASLQCLNETLTSCTKEVGKAALEKQIEEINEQIRKEKEEAEARMRQASKNTEKSTGGGGNGSKNWSEDDLQLLIKAVNLFPAGTNSRWEVIANYMNIHSSSGVKRTAKDVIGKAKSLQKLDPHQKDDINKKAFDKFKKEHGVVPQADNATPSERFEGPYTDFTPWTTEEQKLLEQALKTYPVNTPERWEKIAEAVPGRTKKDCMKRYKELVEMVKAKKAAQEQVLNASRAKK
